Reference: PubChem BioAssay AID256 (DTP/NCI, 2004)
The list is a part of this screen's results and no random one: it is rich in T/C values a quarter to a half above the control, in often repeated tests (any T/C) and in doses without a T/C. Other doses and runs of a compound stand elsewhere. T/C gives the treated animals as a percentage of the vehicle group. Some entries give survivors of the animals treated and no T/C: the source files T/C as zero there, which appears to mark a toxic dose or a test without result, not a measured value. Some survivor counts are full or nearly so, which does not show that the dose was tolerated: the source hardly ever lists a survival T/C far under the control, and the zero likely stands for such cases as well. Survivors were counted at the toxicity check, usually on the fifth day, unless a day is given; later deaths do not show. Schedules are NCI's codes, taken here to give the interval after Q, in days (D) or hours (H), and the number of doses after X. For survival time, the PubChem record calls one and a half times the control and up active, and a quarter to a half above the control has no call in these data; cut-offs in other NCI protocols can differ.

Tested on: CD2F1 mice, L1210 leukemia ip, survival T/C
Experiment: NCI In Vivo Anticancer Drug Screen. Data for tumor model L1210 Leukemia (intraperitoneal) in CD2F1 (CDF1) mice
Settings: T/C endpoint: mean survival time, higher T/C = longer survival
How it was run: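 Antitumor effect is scored in animals hosting a serially transplanted tumor. Values compare compound-dosed animals against vehicle-only controls as a simple quotient.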

[1] = dose: 400.0 mg/kg/injection, schedule: Q04DX003 (ip), vehicle: saline

O=C(/C=C/c1ccc2c(c1)OCO2)c1ccc(Cl)cc1 was tested, and the survivor count (dose: 400.0 mg/kg/injection, schedule: Q04DX003 (ip), vehicle: saline with Tween-80) was 6 of 6.
In the case of C=CCCCCCCCCC(=O)NCC[N+](C)(C)C, the survivor count (dose: 100.0 mg/kg/injection, schedule: Q04DX003 (ip), vehicle: saline) is reported as 1 of 6, the survivor count (dose: 200.0 mg/kg/injection, schedule: Q04DX003 (ip), vehicle: saline) is reported as 0 of 6 and the survivor count [1] is reported as 0 of 6.
For CCCCNC(C)(C)C(SS)c1ccc(C(F)(F)F)cc1 (stereo not drawn), the survivor count (dose: 200.0 mg/kg/injection, schedule: Q04DX003 (ip), vehicle: other) was 6 of 6.
Clc1ccc(C2(c3ccncc3)OCCO2)cc1 was tested, and the survivor count [1] was 5 of 6.
In the case of CC1(C)N=C(N)N=C(N)N1c1ccc(CCC(=O)Nc2ccc(S(=O)(=O)F)cc2)cc1, the T/C (dose: 50.0 mg/kg/injection, schedule: Q01DX009 (ip), vehicle: saline with Tween-80) is reported as 131 % of control, the T/C (dose: 50.0 mg/kg/injection, schedule: Q01DX009 (ip), vehicle: saline) is reported as 137 % of control and the T/C (dose: 100.0 mg/kg/injection, schedule: Q01DX009 (ip), vehicle: saline) is reported as 144 % of control.
For c1ccc(-c2ccc(C3=NC(c4ccccc4)N4C3C4c3ccccc3)cc2)cc1 (stereo not drawn), the survivor count (dose: 25.0 mg/kg/injection, schedule: Q01DX009 (ip), vehicle: saline with Tween-80) was 6 of 6, the survivor count (dose: 100.0 mg/kg/injection, schedule: Q01DX001 (ip), vehicle: saline with Tween-80) was 0 of 6 and the survivor count (dose: 200.0 mg/kg/injection, schedule: Q01DX001 (ip), vehicle: saline with Tween-80) was 0 of 6. The survivor count (dose: 400.0 mg/kg/injection, schedule: Q01DX001 (ip), vehicle: saline with Tween-80) was 0 of 6.
